Measurements reported in PubChem BioAssay AID743121 (NCATS, 2013)
Assay: 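Knock-downs that sensitise breast cancer cells to camptothecin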 (primary screen). System: MDA-MB-231 cells, a human breast cancer line. Reagent: single siRNA against human genes, 20 nM siRNA (0.8 pmol per well). Timing: 120 h (drug added 48 h after transfection, read 72 h later). Challenge: camptothecin 20 nM (about EC30) for 72 h; vehicle 0.1% DMSO in parallel plates. Read-out: 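Cell viability by ATP luminescence (CellTiter-Glo) as % of non-targeting siRNA wells, and the log2 ratio of viability without drug over viability with camptothecin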. Direction: log2 vehicle/camptothecin viability: higher = stronger sensitisation to camptothecin; viability with camptothecin and viability without drug: higher = more viable cells. Call rule: 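Active genes have an RSA gene-level p-value below 0.001, computed from the ratios of their separate siRNAs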.
Here is an unselected part of about 26,000 deposited reagents. 167 of them (0.63%) were called active. 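Calls are per gene from RSA p-values that are not deposited; an individual active-marked siRNA can sensitise only weakly.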 Entries without a mark were called inactive. Reagents against one gene are numbered here. No sequences are given here.

log2 vehicle/camptothecin viability | viability with camptothecin (% of control) | viability without drug (% of control) | Gene | reagent
0.446 | 63 | 85.9 | PPP1R9B (GeneID 84687) | 1
-0.0257 | 85 | 83.5 | PPP1R9B (GeneID 84687) | 2
-0.72 | 67.3 | 40.9 | PPP1R9B (GeneID 84687) | 3
-0.195 | 113 | 98.4 | PPP1R9B (GeneID 84687) | 4
-0.323 | 135 | 108 | TRAF5 (GeneID 7188) | 1
-0.235 | 28.5 | 24.2 | TRAF5 (GeneID 7188) | 2
-0.36 | 105 | 81.6 | TRAF5 (GeneID 7188) | 3
0.218 | 11.7 | 13.7 | FOS (GeneID 2353) | 1
-0.32 | 105 | 84.3 | FOS (GeneID 2353) | 2
0.0214 | 68.5 | 69.5 | FOS (GeneID 2353) | 3
0.019 | 83.9 | 85 | FOS (GeneID 2353) | 4
-0.215 | 88.6 | 76.4 | SCT (GeneID 6343) | 1
0.114 | 78.9 | 85.4 | SCT (GeneID 6343) | 2
-0.0277 | 64.3 | 63.1 | SCT (GeneID 6343) | 3
-0.29 | 54.4 | 44.5 | MET (GeneID 4233) | 1
-0.258 | 113 | 94.2 | MET (GeneID 4233) | 2
-0.329 | 65 | 51.7 | MET (GeneID 4233) | 3
-0.268 | 110 | 91.6 | MET (GeneID 4233) | 4
-0.00281 | 58.8 | 58.7 | CXCL1 (GeneID 2919) | 1
-0.0944 | 76.5 | 71.7 | CXCL1 (GeneID 2919) | 2
-0.0336 | 98.9 | 96.6 | CXCL1 (GeneID 2919) | 3
0.0615 | 55.8 | 58.3 | CXCL1 (GeneID 2919) | 4
-0.338 | 137 | 109 | MS4A12 (GeneID 54860) | 1
-0.317 | 77.8 | 62.5 | MS4A12 (GeneID 54860) | 2
0.4 | 76.3 | 101 | MS4A12 (GeneID 54860) | 3
-0.517 | 103 | 72.1 | MS4A12 (GeneID 54860) | 4
0.059 | 68.2 | 71 | GPR183 (GeneID 1880) | 1
-0.254 | 57.8 | 48.5 | GPR183 (GeneID 1880) | 2
0.548 | 54.6 | 79.9 | GPR183 (GeneID 1880) | 3
-0.0347 | 92.2 | 90 | GPR183 (GeneID 1880) | 4
-0.337 | 83.3 | 65.9 | PDE4C (GeneID 5143) | 1
-0.0231 | 52.1 | 51.2 | PDE4C (GeneID 5143) | 2
-0.00731 | 61.8 | 61.5 | PDE4C (GeneID 5143) | 3
0.201 | 53.5 | 61.5 | PDE4C (GeneID 5143) | 4
0.442 | 65.6 | 89.1 | CBX3 (GeneID 11335) | 1
0.047 | 124 | 128 | CBX3 (GeneID 11335) | 2
-0.381 | 124 | 94.9 | CBX3 (GeneID 11335) | 3
-0.135 | 92.9 | 84.6 | CBX3 (GeneID 11335) | 4
-0.37 | 80 | 61.9 | ARAF (GeneID 369) | 1
-0.0846 | 82.4 | 77.7 | ARAF (GeneID 369) | 2
0.174 | 104 | 118 | ARAF (GeneID 369) | 3
-0.18 | 87.4 | 77.2 | ARAF (GeneID 369) | 4
0.123 | 70.1 | 76.3 | ABCB5 (GeneID 340273) | 1
-0.14 | 104 | 94.8 | ABCB5 (GeneID 340273) | 2
-0.143 | 71.4 | 64.7 | ABCB5 (GeneID 340273) | 3
-0.143 | 98.8 | 89.5 | P2RY4 (GeneID 5030) | 1
-0.288 | 115 | 94.4 | P2RY4 (GeneID 5030) | 2
-0.113 | 73.3 | 67.8 | P2RY4 (GeneID 5030) | 3
-0.0283 | 35 | 34.3 | P2RY4 (GeneID 5030) | 4

Limited to “viability without drug (% of control)” (7 entries from above):
PDE4C (GeneID 5143) #4 = 61.5
CBX3 (GeneID 11335) #1 = 89.1
CBX3 (GeneID 11335) #2 = 128
CBX3 (GeneID 11335) #3 = 94.9
CBX3 (GeneID 11335) #4 = 84.6
ARAF (GeneID 369) #1 = 61.9
ARAF (GeneID 369) #2 = 77.7
